Among the data in paper PMC5290461 are binding values, retold here.

Sequences of proteins named here, by UniProt entry; tags and fusion partners are left off. A change or cut given only in a name is not applied to a line headed by its entry. A line that says so, or that is headed by a name, gives the form on record, which may keep a tag or linker. Residues count along the entry.
His-tagged talin1(1-446) WT (Q9Y490, residues 1-446): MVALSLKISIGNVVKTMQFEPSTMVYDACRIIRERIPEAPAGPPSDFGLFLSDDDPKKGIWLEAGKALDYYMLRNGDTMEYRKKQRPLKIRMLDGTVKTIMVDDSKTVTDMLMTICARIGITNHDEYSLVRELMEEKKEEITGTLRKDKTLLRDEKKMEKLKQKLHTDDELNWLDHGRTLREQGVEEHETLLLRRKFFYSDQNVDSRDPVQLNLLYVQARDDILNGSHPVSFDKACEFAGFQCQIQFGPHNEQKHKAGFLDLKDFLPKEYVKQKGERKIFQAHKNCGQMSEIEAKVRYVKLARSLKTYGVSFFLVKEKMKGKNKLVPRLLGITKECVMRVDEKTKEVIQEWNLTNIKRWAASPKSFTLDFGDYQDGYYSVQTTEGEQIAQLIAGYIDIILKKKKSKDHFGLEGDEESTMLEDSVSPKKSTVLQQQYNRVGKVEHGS
His-tagged talin1(1-446) C336S (Q9Y490, form named): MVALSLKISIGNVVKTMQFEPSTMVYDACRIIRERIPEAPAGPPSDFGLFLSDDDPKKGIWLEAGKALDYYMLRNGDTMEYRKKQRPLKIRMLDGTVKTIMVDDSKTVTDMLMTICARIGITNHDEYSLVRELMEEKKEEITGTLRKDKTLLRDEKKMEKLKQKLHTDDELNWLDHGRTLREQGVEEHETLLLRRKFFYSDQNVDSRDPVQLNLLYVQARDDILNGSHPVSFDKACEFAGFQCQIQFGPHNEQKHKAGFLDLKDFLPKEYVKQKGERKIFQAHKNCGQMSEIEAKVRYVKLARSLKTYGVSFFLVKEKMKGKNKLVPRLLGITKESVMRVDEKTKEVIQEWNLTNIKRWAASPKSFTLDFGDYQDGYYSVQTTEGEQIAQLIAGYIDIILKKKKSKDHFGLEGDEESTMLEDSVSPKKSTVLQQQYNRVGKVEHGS
His-tagged talin2(1-449) WT (Q9Y4G6, residues 1-449): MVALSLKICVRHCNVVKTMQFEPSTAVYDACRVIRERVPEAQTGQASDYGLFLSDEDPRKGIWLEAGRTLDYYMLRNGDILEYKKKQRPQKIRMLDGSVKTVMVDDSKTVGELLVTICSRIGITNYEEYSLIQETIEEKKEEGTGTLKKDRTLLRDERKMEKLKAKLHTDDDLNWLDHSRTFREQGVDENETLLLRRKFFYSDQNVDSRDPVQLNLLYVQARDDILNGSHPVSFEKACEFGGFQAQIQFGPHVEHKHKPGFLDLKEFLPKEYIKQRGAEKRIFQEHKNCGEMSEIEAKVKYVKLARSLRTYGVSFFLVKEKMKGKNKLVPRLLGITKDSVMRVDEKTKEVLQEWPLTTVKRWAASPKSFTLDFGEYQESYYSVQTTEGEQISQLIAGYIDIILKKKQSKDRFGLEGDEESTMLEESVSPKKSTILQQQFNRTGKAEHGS
His-tagged talin2(1-449) S339C (Q9Y4G6, form named): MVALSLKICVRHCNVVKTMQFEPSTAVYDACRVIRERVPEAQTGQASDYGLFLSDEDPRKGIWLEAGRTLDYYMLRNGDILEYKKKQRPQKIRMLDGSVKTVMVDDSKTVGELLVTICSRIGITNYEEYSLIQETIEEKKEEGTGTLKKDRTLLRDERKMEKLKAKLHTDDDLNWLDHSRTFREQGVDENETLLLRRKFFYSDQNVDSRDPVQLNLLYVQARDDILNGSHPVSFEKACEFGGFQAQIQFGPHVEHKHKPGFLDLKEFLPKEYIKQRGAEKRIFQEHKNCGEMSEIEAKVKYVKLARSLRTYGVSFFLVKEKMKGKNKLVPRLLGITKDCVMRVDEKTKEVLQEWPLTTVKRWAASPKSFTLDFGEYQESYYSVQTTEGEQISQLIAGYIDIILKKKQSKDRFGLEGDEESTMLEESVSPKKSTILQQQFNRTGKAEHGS

These are yes or no findings as the source states them, for the method shown.

Holding throughout (experiment): SEC-MALS; gel filtration chromatography combined with a static light scattering detector; purified His-tagged talin heads; both purified
In general terms: In gel filtration, larger molecules generally elute earlier.

The target in assay [1] is His-tagged talin1(1-446) WT (human) (UniProt Q9Y490).
Assay [2] addresses His-tagged talin1(1-446) C336S (human) (UniProt Q9Y490).
Assay [3] addresses His-tagged talin2(1-449) WT (human) (UniProt Q9Y4G6).
Assay [4] deals with His-tagged talin2(1-449) S339C (human) (UniProt Q9Y4G6).

On to “His-tagged talin1(1-446) WT (from UniProt Q9Y490 1-446) (domain or fragment)”, for which the binding entry in assay [1] is recorded as “no binding”.

For the substance “His-tagged talin1(1-446) C336S (from UniProt Q9Y490 1-446) (domain or fragment)”, in assay [2], the binding entry is listed as “no binding”.

Regarding “His-tagged talin2(1-449) WT (from UniProt Q9Y4G6 1-449) (domain or fragment)”, in assay [3], the binding result is “no binding”.

Regarding “His-tagged talin2(1-449) S339C (from UniProt Q9Y4G6 1-449) (domain or fragment)”, the binding entry in assay [4] is “no binding”.
